Laboratory results: PubChem BioAssay AID504808 (Drosophila RNAi Screening Center, 2011)
The deposit covers about 21,000 reagents; shown is a random part of those with a known target gene and a result. Of all reagents, 18 (0.084%) are marked active. 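Raw counts without plate normalisation, one of two replicates; the ratio scores behind the calls were not deposited.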 Entries without a mark were called inactive. Names joined by + are all predicted targets of the reagent. The record does not give: the amount of reagent, the time to read-out.

- Aim: 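Fly genes required to hold E2F transcription in check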 (primary screen)
- System: Drosophila S2 cells
- Reagents: long dsRNA against Drosophila genes
- Read-out: 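Dual luciferase plate measurements; E2F-specific signal taken as firefly over Renilla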
- Direction: E2F firefly: higher = more E2F reporter activity; Renilla normaliser: higher = more normaliser reporter signal
- Hit rule: 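Called active if the normalised E2F reporter went up by over 50%; the cutoff is arbitrary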

| gene | dsRNA | E2F firefly, rep 1 | Renilla normaliser, rep 1 |
| --- | --- | --- | --- |
| CG13625 | DRSC14627 | 65822 | 3537 |
| Uch (Ubiquitin carboxy-terminal hydrolase) | DRSC00797 | 84800 | 3484 |
| fest (wurstfest) | DRSC07349 | 1.48e5 | 4905 |
| CG11927 | DRSC00337 | 92155 | 3595 |
| Elys | DRSC19571 | 1.32e5 | 5403 |
| CG1998 | DRSC19829 | 7284 | 411 |
| Rpp20 + CG33932 | DRSC19467 | 1.28e5 | 6448 |
| Jon99Cii (Jonah 99Cii) | DRSC16858 | 1.24e5 | 6704 |
| CG34260 + cmpy | DRSC11701 | 1.24e5 | 6015 |
| Spt-I (Serine palmitoyltransferase subunit I) | DRSC06860 | 94425 | 4258 |
| CG3566 | DRSC18311 | 80068 | 4293 |
| Acyp (Acylphosphatase) | DRSC01861 | 95169 | 3994 |
| Pkc53E (Protein C kinase 53E) | DRSC05636 | 1.79e5 | 5862 |
| Pkc53E (Protein C kinase 53E) | DRSC07510 | 69115 | 3971 |
| Or49b (Odorant receptor 49b) | DRSC07494 | 1.13e5 | 4407 |
| CG14333 (retired record) | DRSC14812 | 1.16e5 | 6065 |
| CG14333 (retired record) | DRSC15769 | 56027 | 3359 |
| CG8543 | DRSC10990 | 87427 | 4202 |
| Vm34Ca (Vitelline membrane 34Ca) | DRSC03475 | 91775 | 4743 |
| mRRF1 (mitochondrial ribosome recycling factor 1) | DRSC10421 | 67894 | 3418 |
| CG15366 (retired record) | DRSC18039 | 1.24e5 | 4604 |
| CG8925 | DRSC16455 | 1.19e5 | 7178 |
| CG8925 | DRSC16456 | 1.12e5 | 6786 |
| CG8925 | DRSC16457 | 1.15e5 | 6330 |
| CG11398 | DRSC18625 | 1.13e5 | 5864 |
| lft (lowfat) | DRSC02236 | 1.47e5 | 5233 |
| CG17207 | DRSC15198 | 1.39e5 | 6439 |
| CG34289 | DRSC13625 | 78564 | 2160 |
| br (broad) | DRSC17691 | 97193 | 2863 |
| br (broad) | DRSC17789 | 1.16e5 | 5824 |
| br (broad) | DRSC18743 | 62913 | 3745 |
| br (broad) | DRSC18744 | 1.23e5 | 4845 |
| CG5895 | DRSC10554 | 1.75e5 | 7316 |
| Ddc (Dopa decarboxylase) | DRSC03314 | 92165 | 4170 |
| Tengl1 (Testis EndoG-Like 1) | DRSC00481 | 1.75e5 | 6231 |
| tai (taiman) | DRSC02207 | 1.32e5 | 4170 |
| tai (taiman) | DRSC02673 | 1.67e5 | 5421 |
| CG11123 | DRSC06040 | 1.50e5 | 4737 |
| CG14370 | DRSC14832 | 1.09e5 | 6467 |
| CG2901 | DRSC18239 | 91564 | 7253 |
| Isha (Insulator su(Hw) mRNA adaptor) | DRSC04456 | 69424 | 3088 |
| CG10508 | DRSC11612 | 92343 | 4169 |
| CG10508 | DRSC11613 | 1.31e5 | 6926 |
| CG5504 | DRSC04701 | 81601 | 3850 |
| CG12057 | DRSC17797 | 1.06e5 | 4885 |
| chb (chromosome bows) | DRSC11469 | 98542 | 4037 |
| CG31817 | DRSC01537 | 1.31e5 | 5424 |
| CG31817 | DRSC01538 | 1.35e5 | 5542 |
| RpL13 (Ribosomal protein L13) | DRSC03416 | 38228 | 3292 |
| CG12116 | DRSC17812 | 1.14e5 | 6437 |
| upd2 (unpaired 2) | DRSC19969 | 1.11e5 | 5207 |
| Cbp53E (Calbindin 53E) | DRSC07356 | 78900 | 3703 |
| RpS3A (Ribosomal protein S3A) | DRSC17168 | 34473 | 4145 |
| CG6294 + CG6299 + CG15642 | DRSC19981 | 2.33e5 | 6713 |
| Edg84A (Ecdysone-dependent gene 84A) | DRSC12594 | 1.50e5 | 7313 |
| CG13365 | DRSC17899 | 60796 | 3606 |
| GstD1 (Glutathione S transferase D1) | DRSC16683 | 1.42e5 | 6617 |
| CG7202 | DRSC11818 | 1.39e5 | 6298 |
| CG8563 | DRSC10996 | 84512 | 3570 |
| Obp56a (Odorant-binding protein 56a) | DRSC06085 | 1.35e5 | 5593 |
| eIF2alpha (eukaryotic translation initiation factor 2 subunit alpha) | DRSC20327 | 1.62e5 | 7331 |
| CG44251 | DRSC06856 | 93657 | 3996 |
| wrapper | DRSC04723 | 94193 | 4194 |
| Cyt-c-p (Cytochrome c proximal) | DRSC03310 | 1.02e5 | 4606 |
| CG3285 | DRSC00589 | 90291 | 3804 |
| CG4960 | DRSC15684 | 1.03e5 | 5975 |
| Acer (Angiotensin-converting enzyme-related) | DRSC01852 | 86076 | 3330 |
| Neurl4 (Neuralized E3 ubiquitin protein ligase 4) | DRSC10638 | 72648 | 3497 |
| Pfk (Phosphofructokinase) | DRSC07506 | 2545 | 216 |
| mtTFB1 + Ccdc56 | DRSC10809 | 66433 | 3334 |
| CG7227 | DRSC03032 | 88554 | 3246 |
| puml (pummelig) | DRSC06793 | 1.42e5 | 4628 |
| CG15115 | DRSC06537 | 52857 | 3529 |
| Alp12 (Alkaline phosphatase 12) | DRSC02515 | 90241 | 4123 |
| CG7465 | DRSC08592 | 92235 | 3528 |
| CG9067 | DRSC07328 | 93489 | 3890 |
| CG7102 | DRSC02647 | 81721 | 3238 |
| CG7102 | DRSC03007 | 1.36e5 | 4895 |
| CG31008 | DRSC14028 | 87226 | 2475 |
| CG5853 | DRSC01103 | 1.38e5 | 6249 |
| CG5853 | DRSC02906 | 76538 | 3088 |
| GlcAT-S (Glucuronyltransferase S) | DRSC02731 | 85401 | 3779 |
| CG33223 | DRSC17572 | 75168 | 2579 |
| l(3)mbt (lethal (3) malignant brain tumor) | DRSC16983 | 2437 (active) | 920 |
